# Results published in publication PMC7819943, “Rice protein-binding microarrays: a tool to detect cis-acting elements near promoter regions in rice”.
# Protein sequences, listed by entry. Tags and fused reporters are not part of them.
# UniProt Q0JBA9, entry or part of it: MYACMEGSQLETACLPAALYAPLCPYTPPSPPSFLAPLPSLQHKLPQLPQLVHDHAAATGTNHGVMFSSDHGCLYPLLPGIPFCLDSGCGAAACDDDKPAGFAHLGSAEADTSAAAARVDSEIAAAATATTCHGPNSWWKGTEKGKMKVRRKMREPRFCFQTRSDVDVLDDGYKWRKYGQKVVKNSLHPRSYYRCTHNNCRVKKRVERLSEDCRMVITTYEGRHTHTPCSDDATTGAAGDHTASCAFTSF
# Some of the results follow.
# Biological target: OsWRKY34 (Oryza sativa, UniProt Q0JBA9 1-250)
# Assay: protein-binding microarray (RPBM); PBS, 2% BSA, 51.3 ng/ul salmon testes DNA, 50 uM zinc acetate, 200 nM TF, 25 C, 1 h; high values mean tight binding
# Details: protein: recombinant; tags: N-terminal polyhistidine and DsRed monomer fusion (pET32a); label: CyDye5-dUTP incorporated in the synthesized complementary strand; 3' TTTTT single-stranded linker to array surface; dsDNA, one strand shown
# Procedure, shortened: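 Binding signal is reported as fluorescence intensity per feature (arbitrary units) from an Axon 4000B scanner. Incubation used 200 nM of each Ni–NTA-purified, N-terminally polyhistidine- and DsRed-fused transcription factor from E. coli BL21-CodonPlus on a double-stranded custom Agilent array for 1 h at 25 °C, with 50 µM zinc acetate in the buffer, followed by washing.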
row,Sequence,binding signal
1,TCGTGCGTGCGTGAGGGAGGTCGTGGTGGTGGTGGTGGTGCGGAGTCACCTAGTGCAG,9020 fluorescence intensity (a.u.)
2,ACCCGGTCACCCCTCGCCCGCACCGCACGACACAAGGGCCCGGAGTCACCTAGTGCAG,8150 fluorescence intensity (a.u.)
3,TCTCCTGCTACGCGTGATCATTCTTTTTTTTTTTTTTTGACGGAGTCACCTAGTGCAG,9610 fluorescence intensity (a.u.)
4,TCTGCTTCCTACCATGTCAACCTACTAATTTGCTGGTTAACGGAGTCACCTAGTGCAG,9950 fluorescence intensity (a.u.)
5,AATACCCATCGGGTTCTCTTGCCCCATACCCACACCCGCGCGGAGTCACCTAGTGCAG,10300 fluorescence intensity (a.u.)
6,AAAGTACCCGAATCTCTTAACATACAGTTGGCATTGTCTTCGGAGTCACCTAGTGCAG,8180 fluorescence intensity (a.u.)
7,GGCTTTAATTGATCACTATGAATACTTGGCTTGTTGTCATCGGAGTCACCTAGTGCAG,9040 fluorescence intensity (a.u.)
8,CACCACCGGCCGCCTCCTCCTACCACTCTTTTCGCTTTGCCGGAGTCACCTAGTGCAG,9530 fluorescence intensity (a.u.)
9,TTCTATAAAATTAGTTTGACTTTGACCAAACTCAAAACGTCGGAGTCACCTAGTGCAG,11500 fluorescence intensity (a.u.)
10,ACGCTAGCTAACCCACCCACTCACCCCACCCATCCACGACCGGAGTCACCTAGTGCAG,8830 fluorescence intensity (a.u.)
11,TTATCAAAAGTACTTTTTAAGTATGACTTCTCCGTTTTTACGGAGTCACCTAGTGCAG,8280 fluorescence intensity (a.u.)
12,CGCCACGGCCCGCTCATGCTGCTCCGCCTCTGCGAGCTCCCGGAGTCACCTAGTGCAG,8470 fluorescence intensity (a.u.)
13,ATGACTTTCTCTTTGTTGCCGCGTGGTAGGAGCAATCGCACGGAGTCACCTAGTGCAG,10900 fluorescence intensity (a.u.)
14,CTGCCACCGCCGGCTGCGAGTTCACGGCGCCTCGCCGACACGGAGTCACCTAGTGCAG,10000 fluorescence intensity (a.u.)
15,CGTGTTTAAGTGGTGTGTGTCACTATCCTTCATCAGTTCCCGGAGTCACCTAGTGCAG,12200 fluorescence intensity (a.u.)
16,GCCTTATGATGTTGAAGAGCATATCGTTCGGATGTTTTTACGGAGTCACCTAGTGCAG,9890 fluorescence intensity (a.u.)
17,GGGTCACACATATATTTTTTTATTCTAATGCCACTTAAACCGGAGTCACCTAGTGCAG,8820 fluorescence intensity (a.u.)
18,GCTACTATAAGGTTTTGTTCTCAACTCGAGGCTCCCAACCCGGAGTCACCTAGTGCAG,8940 fluorescence intensity (a.u.)
19,CCAGTGGTGGAGTGGAGTGGTGGTGGGGAGACGTGAGGAGCGGAGTCACCTAGTGCAG,8630 fluorescence intensity (a.u.)
20,GATTCATTATTTTTGCACTTCACTATTTTGTAGATTTAATCGGAGTCACCTAGTGCAG,9070 fluorescence intensity (a.u.)
21,AGATGTTGTTGCCAAAATTTTGCATGTAGGTTACAGTTCGCGGAGTCACCTAGTGCAG,8230 fluorescence intensity (a.u.)

row,Sequence,binding signal
1,TCGTTTTGTATACGCTGATTTTTTTTTCGTTTCATATATCCGGAGTCACCTAGTGCAG,9550 fluorescence intensity (a.u.)
2,AATCCAAGCAACTATTCTTTGTTAAGTCAAGTTTCCAATCCGGAGTCACCTAGTGCAG,9230 fluorescence intensity (a.u.)
3,TTGGTTTGTTTTTGAGTTTGTTTTTATTGGTGGTATCCTCCGGAGTCACCTAGTGCAG,9070 fluorescence intensity (a.u.)
4,TTTGTCATTGCGTCTTTGCAAGCTACATACGTACCTACGTCGGAGTCACCTAGTGCAG,8560 fluorescence intensity (a.u.)
5,AGGTGAGGGGTGGTGGGGCCACGGGGACAGGGAGAGGAGCCGGAGTCACCTAGTGCAG,12400 fluorescence intensity (a.u.)
6,GAGCCTTAAATCTCCATACTGTGTGATGAATTCTTTTGTTCGGAGTCACCTAGTGCAG,8580 fluorescence intensity (a.u.)
7,ACTTGGTAACCTCTCCACTATTTTCTGCTCCATTGCTAATCGGAGTCACCTAGTGCAG,9120 fluorescence intensity (a.u.)
8,CGGTTATAGTGTGAGTGTGTGCTTGTGTCATGGAATGTGACGGAGTCACCTAGTGCAG,8920 fluorescence intensity (a.u.)
9,TACCGGTGGCGCCGCTCTCTCTCGCACCCCAAAGTTGGCACGGAGTCACCTAGTGCAG,9420 fluorescence intensity (a.u.)
10,TCCAACATAATAACTAGTGATGTGCTTCTACTGTTTCTTTCGGAGTCACCTAGTGCAG,8250 fluorescence intensity (a.u.)
11,CTGCCTCCATCCATCCGCCGCGTCTCGCCGCCGGTCGCACCGGAGTCACCTAGTGCAG,10800 fluorescence intensity (a.u.)
12,TTTCTTTACCACAAGTTTGACCATTTATTTTATTCAAACACGGAGTCACCTAGTGCAG,10100 fluorescence intensity (a.u.)
13,TCTAAATTTGCGCAACCTCTCATGCCACTCTCCGTCAGTTCGGAGTCACCTAGTGCAG,8680 fluorescence intensity (a.u.)
14,TCTGGTTTTTCTTATCCTCTGTGATGTTGCACGCGATACACGGAGTCACCTAGTGCAG,8210 fluorescence intensity (a.u.)
15,GAACGCGTAAAATTTGTGTCTCTTCACCTATATGTATATTCGGAGTCACCTAGTGCAG,14900 fluorescence intensity (a.u.)
16,GTCGTGGGCGGGAGGTGGTGGTGGTGGTGCTGCTGCATTGCGGAGTCACCTAGTGCAG,11600 fluorescence intensity (a.u.)
17,CCCGCATCGTTAAATACACTATTTATTCTATAATCTATAGCGGAGTCACCTAGTGCAG,8350 fluorescence intensity (a.u.)
18,TATTTAATTAATTATTTTCTCTCATCTCGTCTTCTCCGCACGGAGTCACCTAGTGCAG,8070 fluorescence intensity (a.u.)
19,CGGCGGAGGGAGGATCGGGGTGGGTGGCGCAGCGGCGACGCGGAGTCACCTAGTGCAG,11200 fluorescence intensity (a.u.)
20,AAATTACTTTTATGATATGTCTAAATTACTTCTAGATTTCCGGAGTCACCTAGTGCAG,8100 fluorescence intensity (a.u.)
21,AATTACCACTTTTCTCGTATTTAAGCTCTTCAATCTCCCGCGGAGTCACCTAGTGCAG,11000 fluorescence intensity (a.u.)

# An excerpt from further up, as a working copy:
row,Sequence,binding signal
5,AGGTGAGGGGTGGTGGGGCCACGGGGACAGGGAGAGGAGCCGGAGTCACCTAGTGCAG,12400 fluorescence intensity (a.u.)
6,GAGCCTTAAATCTCCATACTGTGTGATGAATTCTTTTGTTCGGAGTCACCTAGTGCAG,8580 fluorescence intensity (a.u.)
7,ACTTGGTAACCTCTCCACTATTTTCTGCTCCATTGCTAATCGGAGTCACCTAGTGCAG,9120 fluorescence intensity (a.u.)
8,CGGTTATAGTGTGAGTGTGTGCTTGTGTCATGGAATGTGACGGAGTCACCTAGTGCAG,8920 fluorescence intensity (a.u.)
9,TACCGGTGGCGCCGCTCTCTCTCGCACCCCAAAGTTGGCACGGAGTCACCTAGTGCAG,9420 fluorescence intensity (a.u.)
10,TCCAACATAATAACTAGTGATGTGCTTCTACTGTTTCTTTCGGAGTCACCTAGTGCAG,8250 fluorescence intensity (a.u.)
11,CTGCCTCCATCCATCCGCCGCGTCTCGCCGCCGGTCGCACCGGAGTCACCTAGTGCAG,10800 fluorescence intensity (a.u.)
12,TTTCTTTACCACAAGTTTGACCATTTATTTTATTCAAACACGGAGTCACCTAGTGCAG,10100 fluorescence intensity (a.u.)
13,TCTAAATTTGCGCAACCTCTCATGCCACTCTCCGTCAGTTCGGAGTCACCTAGTGCAG,8680 fluorescence intensity (a.u.)
14,TCTGGTTTTTCTTATCCTCTGTGATGTTGCACGCGATACACGGAGTCACCTAGTGCAG,8210 fluorescence intensity (a.u.)
15,GAACGCGTAAAATTTGTGTCTCTTCACCTATATGTATATTCGGAGTCACCTAGTGCAG,14900 fluorescence intensity (a.u.)
